Test results published in paper PMC7140707.
No constants are given. Whether binding was seen depends on the method and setting. In cells and extracts the contact can be indirect. Here binding means that the protein was enriched with, or labelled near, the bait; the list need not be complete. Tags and fused reporters may be left off the sequences shown.

T1: His6-Gis1 (yeast (S. cerevisiae)) (UniProt Q03833)
T1 sequence: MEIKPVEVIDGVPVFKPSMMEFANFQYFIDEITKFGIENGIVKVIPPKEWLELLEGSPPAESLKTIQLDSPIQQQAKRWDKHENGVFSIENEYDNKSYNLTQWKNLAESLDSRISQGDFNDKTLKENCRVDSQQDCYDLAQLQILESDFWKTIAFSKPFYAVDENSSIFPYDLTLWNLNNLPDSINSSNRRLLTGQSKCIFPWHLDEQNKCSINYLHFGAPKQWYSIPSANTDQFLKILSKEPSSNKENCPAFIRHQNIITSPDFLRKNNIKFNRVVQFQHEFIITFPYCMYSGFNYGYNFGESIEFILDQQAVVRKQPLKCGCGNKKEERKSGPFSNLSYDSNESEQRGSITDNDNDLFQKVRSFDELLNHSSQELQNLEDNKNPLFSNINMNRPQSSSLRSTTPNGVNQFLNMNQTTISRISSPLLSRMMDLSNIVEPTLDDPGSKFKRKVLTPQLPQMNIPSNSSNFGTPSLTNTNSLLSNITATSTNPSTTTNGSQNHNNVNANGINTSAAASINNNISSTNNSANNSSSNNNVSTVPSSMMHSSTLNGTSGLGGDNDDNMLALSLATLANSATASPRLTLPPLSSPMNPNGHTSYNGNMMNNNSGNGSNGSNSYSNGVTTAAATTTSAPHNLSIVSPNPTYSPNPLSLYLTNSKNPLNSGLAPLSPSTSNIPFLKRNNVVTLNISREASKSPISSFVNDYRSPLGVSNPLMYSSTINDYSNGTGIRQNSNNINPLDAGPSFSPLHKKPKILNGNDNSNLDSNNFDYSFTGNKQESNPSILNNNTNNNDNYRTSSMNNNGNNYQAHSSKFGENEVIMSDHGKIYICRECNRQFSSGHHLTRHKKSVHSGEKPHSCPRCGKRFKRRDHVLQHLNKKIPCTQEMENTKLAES


Target: T1, His6-Gis1 (yeast (S. cerevisiae))
Assay: affinity purification with mass spectrometry; His6-Gis1 pre-bound to a Ni Sepharose 6 Fast Flow column; crude yeast extract (Δgis1 cells grown in air or under hypoxia, Δgis1Δhem1 cells at intermediate or high ALA) loaded, 4 °C, 2 h; eluted complexes separated by SDS-PAGE, bands excised, MS; only the target purified

Binder | binding
ADE1 (protein, UniProt P27616 1-306) MSITKTELDGILPLVARGKVRDIYEVDAGTLLFVATDRISAYDVIMENSIPEKGILLTKLSEFWFKFLSNDVRNHLVDIAPGKTIFDYLPAKLSEPKYKTQLEDRSLLVHKHKLIPLEVIVRGYITGSAWKEYVKTGTVHGLKQPQGLKESQEFPEPIFTPSTKAEQGEHDENISPAQAAELVGEDLSRRVAELAVKLYSKCKDYAKEKGIIIADTKFEFGIDEKTNEIILVDEVLTPDSSRFWNGASYKVGESQDSYDKQFLRDWLTANKLNGVNGVKMPQDIVDRTRAKYIEAYETLTGSKWSH | binds
AGE1 (protein, UniProt Q04412 1-482) MDFYTTDINKNVVPLFSKGTVARTASKAQYPSWCNNALKLTNILLKSLRCKFQTNRCEDDRGFEVYCVILKSIALLMAAKESLILLQIPPSLPSGFPFRSPQLSFTYLSTRLSGSQHKSTHSHHINHQTHPIHSSSSNSNSNNRIPTKTDSSKQHTQHFSFANAGASNRDELLSIVRKIDKSNLKCCDCGSTATVEWVSINLLCILCIKCSGVHRSLGSHISKIRSLTLDNFTSLELMHLLQNNVSNSNVNAIYESNLRNFPVKKITANSDDSERSKFIIDKYQFKKFVIDSNQGREASLKSLIKAIHLDSVFMMQRAIAQSKYSLRELTASEKEQNDLNHSSIFQYSLKHYEIVDGTPIFFITEFLLCNGIHIDNLPKITTNWSPKVLEYWETKLEMYGTFQAVNTSRPRSGPHLNMHSNVDSASSYNKKHDLRVNIPERSASASKRWSLSSIPKSSQNLMSPTNLLTMHKSLKLAKKDKK | binds
CAF20 (protein, UniProt P12962 1-161) MIKYTIDELFQLKPSLTLEVNFDAVEFRAIIEKVKQLQHLKEEEFNSHHVGHFGRRRSSHHHGRPKIKHNKPKVTTDSDGWCTFEAKKKGSGEDDEEETETTPTSTVPVATIAQETLKVKPNNKNISSNRPADTRDIVADKPILGFNAFAALESEDEDDEA | binds
ALT1 (protein, UniProt P52893 65-592) SSSWIVAQNHRRSLSGQSSLNDLRHLNRFPHHTLKTSNNEFYPAEQLTLEDVNENVLKAKYAVRGAIPMRAEELKAQLEKDPQSLPFDRIINANIGNPQQLQQKPLTYYRQVLSLLQYPELLNQNEQQLVDSKLFKLDAIKRAKSLMEDIGGSVGAYSSSQGVEGIRKSVAEFITKRDEGEISYPEDIFLTAGASAAVNYLLSIFCRGPETGVLIPIPQYPLYTATLALNNSQALPYYLDENSGWSTNPEEIETVVKEAIQNEIKPTVLVVINPGNPTGAVLSPESIAQIFEVAAKYGTVVIADEVYQENIFPGTKFHSMKKILRHLQREHPGKFDNVQLASLHSTSKGVSGECGQRGGYMELTGFSHEMRQVILKLASISLCPVVTGQALVDLMVRPPVEGEESFESDQAERNSIHEKLITRAMTLYETFNSLEGIECQKPQGAMYLFPKIDLPFKAVQEARHLELTPDEFYCKKLLESTGICTVPGSGFGQEPGTYHLRTTFLAPGLEWIKKWESFHKEFFDQYRD | binds
ATG18 (protein, UniProt P43601 1-500) MSDSSPTINFINFNQTGTCISLGTSKGFKIFNCEPFGKFYSEDSGGYAIVEMLFSTSLLALVGIGDQPALSPRRLRIINTKKHSIICEVTFPTSILSVKMNKSRLVVLLQEQIYIYDINTMRLLHTIETNPNPRGLMAMSPSVANSYLVYPSPPKVINSEIKAHATTNNITLSVGGNTETSFKRDQQDAGHSDISDLDQYSSFTKRDDADPTSSNGGNSSIIKNGDVIVFNLETLQPTMVIEAHKGEIAAMAISFDGTLMATASDKGTIIRVFDIETGDKIYQFRRGTYATRIYSISFSEDSQYLAVTGSSKTVHIFKLGHSMSNNKLDSDDSNMEEAAADDSSLDTTSIDALSDEENPTRLAREPYVDASRKTMGRMIRYSSQKLSRRAARTLGQIFPIKVTSLLESSRHFASLKLPVETNSHVMTISSIGSPIDIDTSEYPELFETGNSASTESYHEPVMKMVPIRVVSSDGYLYNFVMDPERGGDCLILSQYSILMD | binds
ADH3 (protein, UniProt P07246 25-375) QSTAAIPKTQKGVIFYENKGKLHYKDIPVPEPKPNEILINVKYSGVCHTDLHAWHGDWPLPVKLPLVGGHEGAGVVVKLGSNVKGWKVGDLAGIKWLNGSCMTCEFCESGHESNCPDADLSGYTHDGSFQQFATADAIQAAKIQQGTDLAEVAPILCAGVTVYKALKEADLKAGDWVAISGAAGGLGSLAVQYATAMGYRVLGIDAGEEKEKLFKKLGGEVFIDFTKTKNMVSDIQEATKGGPHGVINVSVSEAAISLSTEYVRPCGTVVLVGLPANAYVKSEVFSHVVKSINIKGSYVGNRADTREALDFFSRGLIKSPIKIVGLSELPKVYDLMEKGKILGRYVVDTSK | binds

Second part, the binder after the results:

binding | Binder
binds | YPL247C (protein, UniProt Q12523 1-523) MDPFHNGNKRSSISFGSSQRQPYNKNNYLSGTNGPSSAAQDQGRGPSPFGMSGNTTNGGNSKRNSGCDLSATYYASRSPMYSPLDFSPPVFSPNHSQLQQARGYAANIPVVSNLMNPSMASVCEYQSHYPLFGLDWSADDYVCLGSYKEDSRNKLQVLHSNDLLSWESVVDADVVYPVSKIQWVPSQLYPRKLATCSDSLRIWSVSPEERQFQEQINLSLCKYNRQHPANPAAADDMKVIGTFPPITSFDWNTVDTNLIISSSIDTTCIVWDLQSSHYVKTQLIAHDSEVFDVRFLTKSTQLFASCGGDGSVRVFDLRSLAHSTIIYEPPSSSVSGATAGTITPSSKGSDALLRLEPSPYDPNVLATFAADSNKIIILDMRNPESPILNLQGHGSSVNGIKWHPTKRNVLLSCGDDCQVLYWDLNSSFMEINAAGSKSPSIHGTSLEDPDGDTEMTDGGAGSGLNEDPLSLNNNSKQVCKTLETPNMMYANKTQEINNIAWRPQRGDWFGCVSGKKFQNVRVL
binds | YBL081W (protein, UniProt P38180 1-368) MPGQIISIPFLSQNEDMDKYLLEYRSLKLLHQSSNSFQSHNAPSHQSNYHPHYNHMKYNNTGSYYYYNNNNNSSVNPHNQAGLQSINRSIPSAPYGAYNQNRANDVPYMNTQKKHHRFSANNNLNQQKYKQYPQYTSNPMVTAHLKQTYPQLYYNSNVNAHNNNNNSNNNNNNNNNSNNNNNLYNQTQFSTRYFNSNSSPSLTSSTSNSSSPYNQSTFEYILPSTSAASTNLSSSSSNNSMHTNPTTATSTSADLINDLPVGPTSSSLISDLHSPPTVSFLPASQTLLMSSTTSSSIGTNINPPQHSPSPSQREDFSTAPVNMSSSASLLMNDSSLGWGSNHMNVSSSSQPASSRPFGIWNTDMSVWS
binds | YCL020W (protein, UniProt P25383 1-438) MESQQLHQNPRSLHGSAYASVTSKEVPSNQDPLAVSASNLPEFDRDSTKVNSQQETTPGTSAVPENHHHVSPQPASVPPPQNGQYQQHGMMTPNKAMASNWAHYQQPSMMTCSHYQTSPAYYQPDPHYPLPQYIPPLSTSSPDPIDSQNQHSEVPQAETKVRNNVLPPHTLTSEENFSTWVKFYIRFLKNSNLGDIIPNDQGEIKRQMTYEEHAYIYNTFQAFAPFHLLPTWVKQILEINYADILTVLCKSVSKMQTNNQELKDWIALANLEYDGSTSADTFEITVSTIIQRLKENNINVSDRLACQLILKGLSGDFKYLRNQYRTKTNMKLSQLFAEIQLIYDENKIMNLNKPSQYKQHSEYKNVSRTSPNTTNTKVTTRNYQRTNSSKPRAAKAHNIATSSKFSRVNNDHINESTVSSQYLSDDNELSLRPATERI
binds | UTR1 (protein, UniProt P21373 1-530) MKENDMNNGVDKWVNEEDGRNDHHNNNNNLMKKAMMNNEQIDRTQDIDNAKEMLRKISSESSSRRSSLLNKDSSLVNGNANSGGGTSINGTRGSSKSSNTHFQYASTAYGVRMLSKDISNTKVELDVENLMIVTKLNDVSLYFLTRELVEWVLVHFPRVTVYVDSELKNSKKFAAGELCEDSKCRESRIKYWTKDFIREHDVFFDLVVTLGGDGTVLFVSSIFQRHVPPVMSFSLGSLGFLTNFKFEHFREDLPRIMNHKIKTNLRLRLECTIYRRHRPEVDPNTGKKICVVEKLSTHHILNEVTIDRGPSPFLSMLELYGDGSLMTVAQADGLIAATPTGSTAYSLSAGGSLVCPTVNAIALTPICPHALSFRPIILPESINLKVKVSMKSRAPAWAAFDGKDRIELQKGDFITICASPYAFPTVEASPDEFINSISRQLNWNVREQQKSFTHILSQKNQEKYAHEANKVRNQAEPLEVIRDKYSLEADATKENNNGSDDESDDESVNCEACKLKPSSVPKPSQARFSV
binds | YPK2 (protein, UniProt P18961 1-677) MHSWRISKFKLGRSKEDDGSSEDENEKSWGNGLFHFHHGEKHHDGSPKNHNHEHEHHIRKINTNETLPSSLSSPKLRNDASFKNPSGIGNDNSKASERKASQSSTETQGPSSESGLMTVKVYSGKDFTLPFPITSNSTILQKLLSSGILTSSSNDASEVAAIMRQLPRYKRVDQDSAGEGLIDRAFATKFIPSSILLPGSTNSSPLLYFTIEFDNSITTISPDMGTMEQPVFNKISTFDVTRKLRFLKIDVFARIPSLLLPSKNWQQEIGEQDEVLKEILKKINTNQDIHLDSFHLPLNLKIDSAAQIRLYNHHWISLERGYGKLNITVDYKPSKNKPLSIDDFDLLKVIGKGSFGKVMQVRKKDTQKIYALKALRKAYIVSKCEVTHTLAERTVLARVDCPFIVPLKFSFQSPEKLYLVLAFINGGELFYHLQHEGRFSLARSRFYIAELLCALDSLHKLDVIYRDLKPENILLDYQGHIALCDFGLCKLNMKDNDKTDTFCGTPEYLAPEILLGQGYTKTVDWWTLGILLYEMMTGLPPYYDENVPVMYKKILQQPLLFPDGFDPAAKDLLIGLLSRDPSRRLGVNGTDEIRNHPFFKDISWKKLLLKGYIPPYKPIVKSEIDTANFDQEFTKEKPIDSVVDEYLSASIQKQFGGWTYIGDEQLGDSPSQGRSIS
